Experimental findings from the supplement of paper PMC10849652 are described below.

Amino acid sequences for entries named in this document (tags omitted). A change or cut given only in a name is not applied to a line headed by its entry.
UniProt Q8N4C8: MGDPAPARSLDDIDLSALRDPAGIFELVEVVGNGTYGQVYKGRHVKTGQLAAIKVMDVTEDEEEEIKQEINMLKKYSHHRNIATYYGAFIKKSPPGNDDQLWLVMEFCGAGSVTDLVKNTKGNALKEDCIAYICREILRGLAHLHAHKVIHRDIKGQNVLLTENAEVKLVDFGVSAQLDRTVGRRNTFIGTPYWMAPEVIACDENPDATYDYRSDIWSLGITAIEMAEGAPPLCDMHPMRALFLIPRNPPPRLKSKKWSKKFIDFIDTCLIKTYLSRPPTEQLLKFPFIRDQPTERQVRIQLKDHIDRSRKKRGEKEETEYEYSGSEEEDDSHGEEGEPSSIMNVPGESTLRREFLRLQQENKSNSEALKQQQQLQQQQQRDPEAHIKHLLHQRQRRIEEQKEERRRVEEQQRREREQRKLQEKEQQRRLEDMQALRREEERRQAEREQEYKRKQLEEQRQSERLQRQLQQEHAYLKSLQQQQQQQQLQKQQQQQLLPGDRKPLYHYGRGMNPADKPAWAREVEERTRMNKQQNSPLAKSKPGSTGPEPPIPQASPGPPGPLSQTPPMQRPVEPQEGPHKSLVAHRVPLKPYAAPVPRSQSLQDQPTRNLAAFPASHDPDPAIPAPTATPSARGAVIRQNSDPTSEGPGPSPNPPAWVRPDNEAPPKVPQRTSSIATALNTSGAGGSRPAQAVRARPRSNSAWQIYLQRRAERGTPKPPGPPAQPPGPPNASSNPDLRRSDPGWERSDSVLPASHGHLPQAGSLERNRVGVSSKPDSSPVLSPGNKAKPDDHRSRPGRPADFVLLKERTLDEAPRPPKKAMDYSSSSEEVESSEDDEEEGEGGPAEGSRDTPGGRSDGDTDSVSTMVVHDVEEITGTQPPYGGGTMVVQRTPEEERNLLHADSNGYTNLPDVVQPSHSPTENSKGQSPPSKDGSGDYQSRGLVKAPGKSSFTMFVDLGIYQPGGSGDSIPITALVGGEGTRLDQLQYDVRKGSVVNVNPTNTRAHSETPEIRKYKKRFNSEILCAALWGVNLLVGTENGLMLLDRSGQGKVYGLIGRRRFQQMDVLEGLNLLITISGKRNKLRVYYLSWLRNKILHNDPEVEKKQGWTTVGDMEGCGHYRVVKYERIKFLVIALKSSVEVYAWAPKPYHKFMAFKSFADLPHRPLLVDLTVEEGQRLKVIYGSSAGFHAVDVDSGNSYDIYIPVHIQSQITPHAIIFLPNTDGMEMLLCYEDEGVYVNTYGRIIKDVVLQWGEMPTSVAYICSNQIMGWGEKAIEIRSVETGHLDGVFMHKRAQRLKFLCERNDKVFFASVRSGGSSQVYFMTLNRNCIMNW
UniProt Q9Y6X9: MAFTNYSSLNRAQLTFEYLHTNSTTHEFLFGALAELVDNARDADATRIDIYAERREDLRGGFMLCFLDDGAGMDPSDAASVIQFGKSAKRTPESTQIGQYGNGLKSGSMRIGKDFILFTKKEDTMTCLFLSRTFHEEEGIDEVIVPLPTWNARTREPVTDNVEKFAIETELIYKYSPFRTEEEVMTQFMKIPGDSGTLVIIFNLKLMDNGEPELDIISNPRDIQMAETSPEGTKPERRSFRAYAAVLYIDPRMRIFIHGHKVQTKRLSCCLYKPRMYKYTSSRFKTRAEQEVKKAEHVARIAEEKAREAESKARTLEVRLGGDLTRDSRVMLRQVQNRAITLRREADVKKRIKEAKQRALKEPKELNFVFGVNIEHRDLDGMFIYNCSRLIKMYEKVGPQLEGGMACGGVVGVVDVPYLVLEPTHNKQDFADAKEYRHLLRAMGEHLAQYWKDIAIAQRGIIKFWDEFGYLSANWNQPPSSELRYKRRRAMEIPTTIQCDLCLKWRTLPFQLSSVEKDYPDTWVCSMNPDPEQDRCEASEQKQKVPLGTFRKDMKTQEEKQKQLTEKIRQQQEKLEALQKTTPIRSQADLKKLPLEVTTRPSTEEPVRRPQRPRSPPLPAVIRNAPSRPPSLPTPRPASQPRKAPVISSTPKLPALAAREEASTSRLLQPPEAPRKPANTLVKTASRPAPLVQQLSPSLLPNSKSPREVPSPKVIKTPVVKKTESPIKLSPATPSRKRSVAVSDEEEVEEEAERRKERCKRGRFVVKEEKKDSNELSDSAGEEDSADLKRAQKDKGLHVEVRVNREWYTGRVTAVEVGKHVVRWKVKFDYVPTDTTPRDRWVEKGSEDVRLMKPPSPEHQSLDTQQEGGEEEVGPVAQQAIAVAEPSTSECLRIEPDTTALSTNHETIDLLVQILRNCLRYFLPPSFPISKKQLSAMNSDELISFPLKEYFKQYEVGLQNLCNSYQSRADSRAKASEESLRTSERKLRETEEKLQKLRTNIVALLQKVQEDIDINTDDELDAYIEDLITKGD
UniProt Q86VX9: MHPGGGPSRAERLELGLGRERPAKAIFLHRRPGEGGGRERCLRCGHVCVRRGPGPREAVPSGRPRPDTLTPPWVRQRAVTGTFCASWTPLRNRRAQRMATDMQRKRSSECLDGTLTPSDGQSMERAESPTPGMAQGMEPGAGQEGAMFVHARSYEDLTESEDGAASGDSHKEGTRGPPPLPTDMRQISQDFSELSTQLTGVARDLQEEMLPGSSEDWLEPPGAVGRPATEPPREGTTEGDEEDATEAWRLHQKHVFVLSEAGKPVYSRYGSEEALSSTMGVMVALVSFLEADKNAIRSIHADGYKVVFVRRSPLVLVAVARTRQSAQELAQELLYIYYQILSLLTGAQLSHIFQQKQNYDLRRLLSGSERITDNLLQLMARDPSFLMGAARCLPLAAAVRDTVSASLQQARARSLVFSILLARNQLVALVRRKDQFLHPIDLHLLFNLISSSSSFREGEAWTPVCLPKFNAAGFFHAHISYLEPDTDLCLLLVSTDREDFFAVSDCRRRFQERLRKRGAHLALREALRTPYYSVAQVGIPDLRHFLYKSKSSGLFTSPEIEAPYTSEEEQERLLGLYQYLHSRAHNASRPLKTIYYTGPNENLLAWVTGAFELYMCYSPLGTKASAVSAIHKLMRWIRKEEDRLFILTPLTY
UniProt Q8IVH4: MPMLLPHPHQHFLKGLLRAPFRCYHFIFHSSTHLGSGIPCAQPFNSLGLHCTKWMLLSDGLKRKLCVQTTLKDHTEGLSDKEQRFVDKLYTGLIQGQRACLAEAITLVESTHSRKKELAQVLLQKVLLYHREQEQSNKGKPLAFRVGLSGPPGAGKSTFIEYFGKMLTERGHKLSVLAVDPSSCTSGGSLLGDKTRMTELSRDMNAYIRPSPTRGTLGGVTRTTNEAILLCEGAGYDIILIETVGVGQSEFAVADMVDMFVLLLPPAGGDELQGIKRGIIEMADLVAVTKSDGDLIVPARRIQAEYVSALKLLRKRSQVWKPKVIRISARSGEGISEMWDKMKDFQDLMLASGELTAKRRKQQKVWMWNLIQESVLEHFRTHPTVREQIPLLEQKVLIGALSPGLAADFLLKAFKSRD
UniProt O94851, whole entry, looked up: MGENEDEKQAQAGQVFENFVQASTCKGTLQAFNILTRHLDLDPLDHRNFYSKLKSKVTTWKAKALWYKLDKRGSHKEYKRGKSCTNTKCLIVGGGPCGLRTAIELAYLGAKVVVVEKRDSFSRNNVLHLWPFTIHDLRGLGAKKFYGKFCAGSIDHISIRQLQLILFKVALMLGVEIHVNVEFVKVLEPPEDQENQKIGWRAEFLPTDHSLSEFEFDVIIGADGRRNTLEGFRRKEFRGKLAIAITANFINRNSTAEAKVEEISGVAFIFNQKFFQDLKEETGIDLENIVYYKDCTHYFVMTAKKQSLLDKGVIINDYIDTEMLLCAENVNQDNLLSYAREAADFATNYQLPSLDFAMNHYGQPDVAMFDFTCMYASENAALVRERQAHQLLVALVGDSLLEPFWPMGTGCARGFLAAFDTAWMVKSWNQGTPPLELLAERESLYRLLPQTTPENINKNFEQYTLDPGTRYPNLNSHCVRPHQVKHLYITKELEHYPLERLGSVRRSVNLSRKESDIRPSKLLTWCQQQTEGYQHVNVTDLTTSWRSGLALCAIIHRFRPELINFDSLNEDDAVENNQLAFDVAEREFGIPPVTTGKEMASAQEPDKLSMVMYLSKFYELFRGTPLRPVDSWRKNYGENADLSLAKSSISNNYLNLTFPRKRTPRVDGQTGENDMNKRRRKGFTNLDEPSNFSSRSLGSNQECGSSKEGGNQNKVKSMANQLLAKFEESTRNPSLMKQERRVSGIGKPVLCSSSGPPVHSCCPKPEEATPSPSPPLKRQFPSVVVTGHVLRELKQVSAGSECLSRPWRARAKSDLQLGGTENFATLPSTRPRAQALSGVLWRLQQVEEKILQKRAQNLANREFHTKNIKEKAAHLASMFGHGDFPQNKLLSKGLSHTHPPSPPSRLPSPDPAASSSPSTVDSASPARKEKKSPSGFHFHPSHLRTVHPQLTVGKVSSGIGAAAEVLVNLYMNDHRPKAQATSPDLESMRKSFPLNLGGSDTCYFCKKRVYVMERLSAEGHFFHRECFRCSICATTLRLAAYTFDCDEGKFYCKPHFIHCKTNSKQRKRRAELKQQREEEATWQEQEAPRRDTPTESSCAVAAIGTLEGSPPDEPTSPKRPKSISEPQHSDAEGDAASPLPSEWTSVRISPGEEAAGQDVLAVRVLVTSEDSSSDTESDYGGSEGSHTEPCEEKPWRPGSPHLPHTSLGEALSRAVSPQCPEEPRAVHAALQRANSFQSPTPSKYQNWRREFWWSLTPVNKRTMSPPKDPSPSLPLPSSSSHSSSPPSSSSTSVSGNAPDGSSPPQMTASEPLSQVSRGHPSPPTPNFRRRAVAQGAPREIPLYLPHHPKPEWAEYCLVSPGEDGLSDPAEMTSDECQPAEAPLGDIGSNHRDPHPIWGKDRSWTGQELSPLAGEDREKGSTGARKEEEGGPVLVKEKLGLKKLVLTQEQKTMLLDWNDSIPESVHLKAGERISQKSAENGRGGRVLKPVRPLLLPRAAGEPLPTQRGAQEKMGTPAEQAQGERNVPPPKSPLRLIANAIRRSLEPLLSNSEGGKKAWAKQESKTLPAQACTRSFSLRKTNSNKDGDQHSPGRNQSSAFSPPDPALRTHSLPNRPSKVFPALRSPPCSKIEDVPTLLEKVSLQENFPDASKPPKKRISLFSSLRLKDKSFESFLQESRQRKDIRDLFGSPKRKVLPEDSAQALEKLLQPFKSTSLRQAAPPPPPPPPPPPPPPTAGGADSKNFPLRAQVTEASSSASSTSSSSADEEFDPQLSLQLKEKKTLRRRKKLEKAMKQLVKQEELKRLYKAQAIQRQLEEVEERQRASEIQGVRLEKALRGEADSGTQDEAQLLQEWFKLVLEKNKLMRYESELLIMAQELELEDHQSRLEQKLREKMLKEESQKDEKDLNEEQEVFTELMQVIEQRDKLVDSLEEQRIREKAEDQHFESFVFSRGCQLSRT
UniProt O96033: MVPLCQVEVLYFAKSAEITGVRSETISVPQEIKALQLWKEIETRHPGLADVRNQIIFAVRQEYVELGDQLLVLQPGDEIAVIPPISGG

Common to all, as to assay: log2 fold change, soluble protein after heating vs DMSO (PISA); higher = thermal stabilisation; K562 cells, 10 uM, 30 min; active = over 0.2 and 3.5 SD of the protein, either way, in both replicates (recomputed)
Compound in assay [1]: C#Cc1cccc(Nc2ncnc3cc(OCCOC)c(OCCOC)cc23)c1 [erlotinib]
In a few lines: (§1)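 K562 cells at 2×10^6 cells/mL were treated with 10 μM compound for 30 min. Aliquots were heated for 3 min across 48°C-58°C, pooled, and extracted in PBS with 0.5% NP-40 at 4°C; soluble protein was the supernatant after 21,000xg for 90 min. Soluble protein was quantified by TMTpro 16plex LC-MS/MS with channel sums equalised, and reported as log2 fold change in thermal stability against DMSO controls, with values from duplicates.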

Compound in assay [2]: C/C(=N\NC(=O)C1=CC(=CC=C1)S(=O)(=O)N2CCOCC2)/C3=C(C=CC(=C3)Cl)O
In a few lines: as §1

Compound in assay [3]: C1=CC(=C(C=C1Cl)C2=NC3=NC=CN=C3C(=N2)NC4=CC=NC=C4)F
In a few lines: as §1

Compound in assay [4]: C1=CC(=CC=C1C2=NC3=C(N2)C=C(C=C3)C(=O)N)OC4=CC=C(C=C4)Cl
In a few lines:
as §1

Compound in assay [5]: C1=CC2=C(C=CC(=C2)/C=C\3/C(=O)NC(=NCC4=CC=CS4)S3)N=C1
In a few lines:
as §1

Compound in assay [6]: C1=CC2=NC=CN=C2C=C1/C=C/3\C(=O)NC(=O)S3
In short, it runs like this:
as §1

Compound in assay [7]: C1=CC=C(C=C1)C2=NC(=C(N2)C3=CC=NC=C3)C4=CC(=C(C=C4)Cl)O
In short, it runs like this: as §1

Compound in assay [8]: C1=CC=C2C(=C1)C3=NNC4=CC=CC(=C43)C2=O
In a few lines:
as §1

Compound in assay [9]: C1CCN(C1)C(=O)NC2=CC=CC(=C2)NC3=NC=C(C(=N3)NCCC4=CN=CN4)Br
In a few lines:
as §1

Compound in assay [10]: C1CN(CCC1(CC2=CC=C(C=C2)Cl)N)C3=NC=NC4=C3C=CN4
In short, it runs like this:
as §1

Compound in assay [11]: C1COCCN1CCN2C3=CC=CC=C3N=C2NC(=O)C4=CC(=CC=C4)[N+](=O)[O-] [IRAK-1-4 Inhibitor I]
In short, it runs like this:
as §1

Compound in assay [12]: C=CC(=O)N1CCC[C@@H](n2nc(-c3ccc(Oc4ccccc4)cc3)c3c(N)ncnc32)C1 [ibrutinib]
In short, it runs like this:
as §1

Compound in assay [13]: CC(=O)c1cnc2ccc(-c3cc(Cl)c(O)c(Cl)c3)nc2c1N[C@H]1CC[C@H](CN(C)C)CC1
In a few lines: as §1

Compound in assay [14]: CC(C)(C)Cn1c(N)nc2ccc(-c3[nH]c(C(C)(C)C)nc3-c3ccc(F)cc3)nc21 [ralimetinib]
In a few lines:
as §1

Compound in assay [15]: CC(C)(O)CC(=O)NCCn1ccc2ncnc(Nc3ccc(Oc4cccc(C(F)(F)F)c4)c(Cl)c3)c21
In a few lines: as §1

Compound in assay [16]: CC(C)C1=C2N=C(C=C(N2N=C1)NCC3=CC=CC=C3)NCCCCCCN
In a few lines:
as §1

Compound in assay [17]: CC(C)C[C@@H](C=O)NC(=O)[C@H](CC(C)C)NC(=O)[C@H](CC(C)C)NC(=O)OCc1ccccc1
In a few lines: as §1

Compound in assay [18]: CC(C)N(C[C@H]1O[C@@H](n2cnc3c(N)ncnc32)[C@H](O)[C@@H]1O)[C@H]1C[C@@H](CCc2nc3cc(C(C)(C)C)ccc3[nH]2)C1 [pinometostat]
In short, it runs like this: as §1

Compound in assay [19]: CC1=C(C2=C(C=C1)C(=O)C3=CC=CC=C3N2CCCN)C
In a few lines:
as §1

Compound in assay [20]: CC1=C(C(CC(=O)N1)C2=CC=C(C=C2)C(F)(F)F)C(=O)NC3=C(C=C4C(=C3)C=NN4)F
In a few lines:
as §1

The other results are listed elsewhere or left out. Residues, ends and D or L forms follow the SMILES beside them. *: point of attachment. Cbz = O=C(OCc1ccccc1)*

Consider MINK1 (UniProt Q8N4C8), for which the log2 fold change in assay [1] is inactive: -0.05; in assay [2] it was inactive: 0.053; in assay [3] it was inactive: -0.071; in assay [4] it was inactive: 0.036; in assay [5], inactive: -0.045; in [6], inactive: 0.001. The log2 fold change is inactive: -0.064 in assay [7]; inactive: -0.203 in assay [8]; inactive: -0.003 in assay [9]; inactive: -0.008 in [10]; inactive: -0.018 in [11]; inactive: 0.038 in [12]. Further, the log2 fold change is active: -0.715 in [13]; inactive: -0.081 in [14]; inactive: 0.053 in [15]; inactive: 0.021 in [16]; inactive: 0.044 in [17]; inactive: 0.049 in [18]. The log2 fold change in [19] was inactive: 0.061.
For the target MORC2 (UniProt Q9Y6X9), the log2 fold change in assay [1] was inactive: 0.105; in [2], inactive: 0.033; in assay [3] it was inactive: -0.027; in assay [4], inactive: 0.051; in assay [5] it was inactive: 0.148; in assay [6] it was inactive: -0.097. Moreover, the log2 fold change is inactive: 0.421 in assay [8]; inactive: -0.292 in assay [11]; inactive: 0.042 in assay [12]; inactive: -0.201 in assay [13]; inactive: -0.074 in assay [15]; inactive: -0.084 in assay [16]. Also, the log2 fold change in assay [18] is inactive: 0.038.
Turning to MON1A (UniProt Q86VX9), the log2 fold change in assay [1] was inactive: -0.119; in assay [3], inactive: 0.022; in [4], inactive: 0; in [6] it was inactive: -0.262; in assay [7], inactive: -0.017; in assay [9] it was inactive: 0. Also, the log2 fold change in assay [10] is inactive: 0.135; in [11], inactive: -0.005; in [12] it was inactive: 0.231; in assay [14], inactive: -0.213; in assay [15] it was inactive: -0.012; in assay [16], inactive: -0.151. In addition, the log2 fold change in assay [17] is inactive: 0.032; in [18] it was inactive: 0.002; in assay [19] it was inactive: 0.129.
Regarding MKKS (UniProt Q9HB66), the log2 fold change in assay [1] was inactive: 0.111; in [2], inactive: 0; in [3] it was inactive: 0.237; in assay [4] it was inactive: -0.113; in assay [5] it was inactive: -0.042; in assay [6], inactive: 0.185. The log2 fold change in [8] was inactive: -0.094; in assay [9] it was inactive: 0.025; in assay [10], inactive: -0.019; in assay [12], inactive: 0.009; in assay [13], inactive: -0.091; in [15] it was inactive: -0.053. Besides, the log2 fold change in [16] was inactive: 0.084; in assay [20] it was inactive: 0.053; in assay [19] it was inactive: -0.061.
Regarding MMAA (UniProt Q8IVH4), the log2 fold change in assay [1] is inactive: 0.096; in assay [2], inactive: -0.065; in assay [3], inactive: -0.088; in [4], inactive: -0.048; in assay [5], inactive: 0.056; in [8], inactive: 0.132. In addition, the log2 fold change in assay [13] was inactive: -0.054; in [15], inactive: 0.035; in [16], inactive: 0.041.
With MICAL2 (UniProt O94851), the log2 fold change in [2] was inactive: -0.099; in assay [3], inactive: 0.05; in [5], inactive: 0.191; in assay [6], inactive: 0.08; in assay [7] it was inactive: -0.047; in assay [8] it was inactive: 0.036. In addition, the log2 fold change is inactive: -0.6 in [9]; inactive: 0.106 in [10]; inactive: -0.066 in assay [11]; inactive: -0.01 in assay [12]; inactive: -0.116 in [13]; inactive: 0.038 in assay [14]. For the same target, the log2 fold change is inactive: -0.08 in assay [15], inactive: 0.136 in assay [17], inactive: 0.014 in [18] and inactive: 0.139 in [19].
As for MOCS2 (UniProt O96033), the log2 fold change was inactive: 0.118 in assay [1]; inactive: -0.014 in [2]; inactive: 0.149 in assay [4]; inactive: -0.062 in assay [5]; inactive: -0.131 in [8]; inactive: -0.18 in [9]. In addition, the log2 fold change in assay [10] was inactive: 0.022; in assay [13] it was inactive: 0.082; in [16], inactive: -0.138; in assay [19], inactive: 0.01.
